Results are given in words; binding and its absence hold for the method and conditions named. In cells and extracts the contact can be indirect. Some entries that bind do so weakly or less than the wild type.

Sequences of proteins named here, by UniProt entry; tags and fusion partners are left off. Residues count along the entry.
UniProt Q00954, residues 19-218: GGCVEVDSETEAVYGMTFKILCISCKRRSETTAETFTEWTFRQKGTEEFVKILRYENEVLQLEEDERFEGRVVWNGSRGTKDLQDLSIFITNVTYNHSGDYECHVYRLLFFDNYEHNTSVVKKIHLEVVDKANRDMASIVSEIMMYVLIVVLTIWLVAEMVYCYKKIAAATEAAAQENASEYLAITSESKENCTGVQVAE
UniProt Q62968: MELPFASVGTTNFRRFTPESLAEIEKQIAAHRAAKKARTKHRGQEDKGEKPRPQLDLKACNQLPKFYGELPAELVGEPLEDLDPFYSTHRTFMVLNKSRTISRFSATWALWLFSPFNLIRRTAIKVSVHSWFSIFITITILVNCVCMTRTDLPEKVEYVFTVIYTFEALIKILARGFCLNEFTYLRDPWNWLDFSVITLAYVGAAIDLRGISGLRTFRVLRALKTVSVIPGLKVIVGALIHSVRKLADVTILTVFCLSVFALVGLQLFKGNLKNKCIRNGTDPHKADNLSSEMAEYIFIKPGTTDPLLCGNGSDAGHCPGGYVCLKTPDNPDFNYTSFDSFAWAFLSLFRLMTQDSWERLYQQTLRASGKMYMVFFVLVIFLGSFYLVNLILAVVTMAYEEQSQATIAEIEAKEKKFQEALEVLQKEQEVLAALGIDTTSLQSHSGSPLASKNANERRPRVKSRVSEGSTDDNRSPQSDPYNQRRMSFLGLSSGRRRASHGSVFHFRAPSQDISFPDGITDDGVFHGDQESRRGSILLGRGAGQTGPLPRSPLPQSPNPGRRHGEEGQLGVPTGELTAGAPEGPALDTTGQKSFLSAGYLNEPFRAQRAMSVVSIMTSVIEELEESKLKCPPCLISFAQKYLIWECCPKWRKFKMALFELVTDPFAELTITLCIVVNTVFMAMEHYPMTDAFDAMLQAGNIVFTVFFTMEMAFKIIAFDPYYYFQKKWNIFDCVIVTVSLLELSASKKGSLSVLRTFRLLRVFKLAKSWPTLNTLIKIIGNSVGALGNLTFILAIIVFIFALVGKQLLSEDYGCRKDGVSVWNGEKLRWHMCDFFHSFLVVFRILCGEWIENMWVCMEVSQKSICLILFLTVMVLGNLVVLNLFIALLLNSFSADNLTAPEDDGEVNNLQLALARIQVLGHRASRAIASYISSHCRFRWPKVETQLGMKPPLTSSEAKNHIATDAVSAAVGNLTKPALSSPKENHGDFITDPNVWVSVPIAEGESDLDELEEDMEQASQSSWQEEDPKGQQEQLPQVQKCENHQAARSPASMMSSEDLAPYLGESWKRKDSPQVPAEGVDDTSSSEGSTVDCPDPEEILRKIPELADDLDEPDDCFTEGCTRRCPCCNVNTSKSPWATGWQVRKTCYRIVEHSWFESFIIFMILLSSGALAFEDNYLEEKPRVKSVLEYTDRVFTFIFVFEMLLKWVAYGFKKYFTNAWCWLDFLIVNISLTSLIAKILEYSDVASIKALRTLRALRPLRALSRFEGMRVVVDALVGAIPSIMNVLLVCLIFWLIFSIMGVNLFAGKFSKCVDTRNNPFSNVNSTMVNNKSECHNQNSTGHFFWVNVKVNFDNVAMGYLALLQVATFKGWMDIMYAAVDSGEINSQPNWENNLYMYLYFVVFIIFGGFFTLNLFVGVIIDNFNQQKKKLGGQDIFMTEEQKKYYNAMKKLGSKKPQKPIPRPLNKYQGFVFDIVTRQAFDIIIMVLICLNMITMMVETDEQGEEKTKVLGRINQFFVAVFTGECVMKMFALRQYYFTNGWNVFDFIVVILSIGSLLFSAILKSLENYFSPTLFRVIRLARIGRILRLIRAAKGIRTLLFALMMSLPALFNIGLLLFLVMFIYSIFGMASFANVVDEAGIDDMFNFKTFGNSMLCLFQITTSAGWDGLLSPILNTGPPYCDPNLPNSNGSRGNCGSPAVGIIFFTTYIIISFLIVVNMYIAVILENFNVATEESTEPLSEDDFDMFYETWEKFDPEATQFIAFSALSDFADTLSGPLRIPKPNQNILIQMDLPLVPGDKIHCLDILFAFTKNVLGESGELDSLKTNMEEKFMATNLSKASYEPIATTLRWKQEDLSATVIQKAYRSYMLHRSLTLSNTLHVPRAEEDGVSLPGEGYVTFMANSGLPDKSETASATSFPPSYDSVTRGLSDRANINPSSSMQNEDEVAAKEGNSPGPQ

This experiment addresses Nav β1 subunit (rat (endogenous in DRG)) (UniProt Q00954). Description: co-IP; rat DRG protein extract (control and paclitaxel-treated rats) lysed in cold RIPA buffer (20 mM Tris-HCl pH 7.5, 150 mM NaCl, 0.1% Triton X-100, 1% sodium deoxycholate); precipitated with 1-5 ug Nav1.8 or Navβ1 antibody at 4°C overnight, protein A/G beads 4 h; immunoblot.

With “Nav1.8 channel (from UniProt Q62968 1-1956)”, the binding entry is “binds”.

The record behind these values is PMC6330330.
